The source of these data is paper PMC3660565.

Sequences of proteins named here, by UniProt entry; tags and fusion partners are left off. A change or cut given only in a name is not applied to a line headed by its entry.
UniProt Q15172: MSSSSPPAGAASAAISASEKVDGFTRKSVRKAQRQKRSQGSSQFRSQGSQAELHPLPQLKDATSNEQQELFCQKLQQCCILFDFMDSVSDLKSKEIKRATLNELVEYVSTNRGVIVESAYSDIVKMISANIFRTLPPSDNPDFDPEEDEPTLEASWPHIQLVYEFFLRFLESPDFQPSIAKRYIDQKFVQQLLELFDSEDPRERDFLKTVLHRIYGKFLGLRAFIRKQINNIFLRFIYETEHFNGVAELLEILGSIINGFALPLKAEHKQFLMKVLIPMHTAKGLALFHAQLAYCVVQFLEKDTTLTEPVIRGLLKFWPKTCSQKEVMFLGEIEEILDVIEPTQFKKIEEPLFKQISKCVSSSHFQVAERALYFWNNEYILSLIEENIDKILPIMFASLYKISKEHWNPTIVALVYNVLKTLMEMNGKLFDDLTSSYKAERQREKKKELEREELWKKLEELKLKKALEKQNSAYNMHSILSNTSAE
UniProt Q15173: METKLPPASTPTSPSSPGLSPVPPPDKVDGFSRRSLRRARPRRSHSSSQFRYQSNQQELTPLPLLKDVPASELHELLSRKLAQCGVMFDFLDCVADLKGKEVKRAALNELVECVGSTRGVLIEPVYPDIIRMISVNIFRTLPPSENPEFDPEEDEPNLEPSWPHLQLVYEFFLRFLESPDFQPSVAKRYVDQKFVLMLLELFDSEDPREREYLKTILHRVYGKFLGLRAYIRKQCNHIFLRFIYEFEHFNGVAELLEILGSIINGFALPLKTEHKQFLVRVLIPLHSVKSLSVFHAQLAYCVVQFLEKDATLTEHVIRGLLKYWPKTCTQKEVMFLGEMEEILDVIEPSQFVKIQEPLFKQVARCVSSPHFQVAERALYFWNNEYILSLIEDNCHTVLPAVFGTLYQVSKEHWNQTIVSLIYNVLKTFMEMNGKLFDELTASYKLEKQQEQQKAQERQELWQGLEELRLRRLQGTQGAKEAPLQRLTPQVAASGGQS
UniProt P67775: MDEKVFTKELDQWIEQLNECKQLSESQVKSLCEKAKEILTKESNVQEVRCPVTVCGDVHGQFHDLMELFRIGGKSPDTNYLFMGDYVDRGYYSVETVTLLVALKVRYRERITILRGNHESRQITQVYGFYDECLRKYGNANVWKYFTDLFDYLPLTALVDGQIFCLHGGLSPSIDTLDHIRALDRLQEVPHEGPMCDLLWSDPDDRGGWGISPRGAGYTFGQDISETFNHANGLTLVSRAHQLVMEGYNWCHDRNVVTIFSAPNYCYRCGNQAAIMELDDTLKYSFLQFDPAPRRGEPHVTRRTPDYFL

These are yes or no findings as the source states them, for the method shown. In cells and extracts the contact can be indirect. Binding calls can cover weak binding; strength is not graded here.

Test [1] deals with HA-tagged B56α1 (PP2A regulatory subunit B56α1) (UniProt Q15172). As to the kind of experiment: co-IP; HA-B56 immunoprecipitated with anti-HA antibodies and protein G Sepharose from lysates of permanently B56-transfected Calu1 cells (50 mM Tris-HCl pH 7.4, 150 mM NaCl, 1% NP-40, 0.25% sodium deoxycholate); co-precipitated endogenous proteins detected by western blotting; 2x10^6 cells (6x10^6 cells for B56β1 with C subunit); in Figure 7A cells stimulated with EGF and loaded on collagen, 0 to 60 min.

Test [2] deals with HA-tagged B56β1 (PP2A regulatory subunit B56β1) (UniProt Q15173). The description is as above.

As for “C catalytic subunit of PP2A (from UniProt P67775) (enzyme)”, the binding result in test [1] and in test [2] was “binds” in each case.
